According to doi:10.1101/2022.10.13.511879 (bioRxiv, 2022):
No constants are given. Whether binding was seen depends on the method and setting. For part of these data: In cells and extracts the contact can be indirect. Some entries that bind do so weakly or less than the wild type. For part of these data: Where a sequence is shown, tags or fusion partners need not be part of it. Each block holds one binder with its values, some of them ahead of it.

What was measured:
[1] = biological target: T1, POPDC1-CFP (human) (UniProt Q8NE79); test: SDS-PAGE and Western blot of oligomer bands that withstand SDS
T1 sequence: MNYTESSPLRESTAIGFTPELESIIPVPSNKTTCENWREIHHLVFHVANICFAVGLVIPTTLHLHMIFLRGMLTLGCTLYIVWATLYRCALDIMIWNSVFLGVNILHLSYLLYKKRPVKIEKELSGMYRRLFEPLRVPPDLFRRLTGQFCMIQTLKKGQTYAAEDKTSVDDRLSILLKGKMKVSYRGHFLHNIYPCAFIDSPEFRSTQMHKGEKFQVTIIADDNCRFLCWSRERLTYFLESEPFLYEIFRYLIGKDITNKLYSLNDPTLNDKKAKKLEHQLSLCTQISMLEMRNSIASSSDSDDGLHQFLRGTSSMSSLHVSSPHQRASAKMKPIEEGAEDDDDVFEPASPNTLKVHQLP

[2] = biological target: T2, POPDC3-Myc (UniProt Q9HBV1); test: co-IP
T2 sequence: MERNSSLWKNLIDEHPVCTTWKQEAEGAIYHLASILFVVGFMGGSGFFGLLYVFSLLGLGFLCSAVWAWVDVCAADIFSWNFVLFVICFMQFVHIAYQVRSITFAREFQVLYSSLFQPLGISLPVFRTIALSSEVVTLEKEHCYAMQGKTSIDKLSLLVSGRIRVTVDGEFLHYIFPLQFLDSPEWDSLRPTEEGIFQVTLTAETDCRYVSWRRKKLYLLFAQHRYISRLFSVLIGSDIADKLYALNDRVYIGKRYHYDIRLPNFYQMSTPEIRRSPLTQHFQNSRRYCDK

[3] = biological target: T3, POPDC1-Myc (not stated (human or mouse cDNA cloned)) (UniProt Q8NE79); test: co-IP
T3 sequence: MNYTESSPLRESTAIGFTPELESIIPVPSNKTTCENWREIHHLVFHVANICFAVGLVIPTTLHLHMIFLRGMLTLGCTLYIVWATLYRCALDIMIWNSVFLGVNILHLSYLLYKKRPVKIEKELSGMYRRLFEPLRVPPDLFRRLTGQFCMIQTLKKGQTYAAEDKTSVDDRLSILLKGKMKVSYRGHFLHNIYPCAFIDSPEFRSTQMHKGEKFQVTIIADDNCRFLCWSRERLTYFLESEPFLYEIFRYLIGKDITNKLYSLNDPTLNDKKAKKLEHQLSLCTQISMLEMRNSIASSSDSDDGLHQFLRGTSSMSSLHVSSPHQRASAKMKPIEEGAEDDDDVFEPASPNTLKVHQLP

[4] = biological target: T4, POPDC2 with C-terminal NanoLuc or HaloTag (NanoBRET constructs) (human) (UniProt Q9HBU9); test: FRET or BRET
T4 sequence: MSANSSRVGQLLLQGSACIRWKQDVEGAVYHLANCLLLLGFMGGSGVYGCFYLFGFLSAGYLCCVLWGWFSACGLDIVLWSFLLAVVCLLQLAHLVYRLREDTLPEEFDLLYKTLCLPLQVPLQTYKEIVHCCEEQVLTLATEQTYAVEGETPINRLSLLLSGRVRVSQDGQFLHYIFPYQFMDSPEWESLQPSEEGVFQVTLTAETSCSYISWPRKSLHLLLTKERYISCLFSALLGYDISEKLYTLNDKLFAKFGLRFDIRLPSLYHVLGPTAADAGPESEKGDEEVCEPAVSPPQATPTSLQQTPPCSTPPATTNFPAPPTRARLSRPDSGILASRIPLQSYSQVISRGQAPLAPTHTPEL

[5] = biological target: T5, POPDC1-HA (not stated (human or mouse cDNA cloned)) (UniProt Q8NE79); test: co-IP
T5 sequence: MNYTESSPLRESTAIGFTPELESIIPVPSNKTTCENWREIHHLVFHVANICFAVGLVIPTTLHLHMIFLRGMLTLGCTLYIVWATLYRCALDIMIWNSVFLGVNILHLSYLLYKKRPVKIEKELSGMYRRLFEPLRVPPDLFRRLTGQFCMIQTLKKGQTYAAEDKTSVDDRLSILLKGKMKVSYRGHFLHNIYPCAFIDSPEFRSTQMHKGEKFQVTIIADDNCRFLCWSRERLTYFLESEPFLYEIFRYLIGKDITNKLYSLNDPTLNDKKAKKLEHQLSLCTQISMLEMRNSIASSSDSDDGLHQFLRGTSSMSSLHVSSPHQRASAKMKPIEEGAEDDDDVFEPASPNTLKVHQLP

[6] = biological target: T6, POPDC2-VN155 (human, UniProt Q9HBU9 1-364); test: split reporter
T6 sequence (looked up): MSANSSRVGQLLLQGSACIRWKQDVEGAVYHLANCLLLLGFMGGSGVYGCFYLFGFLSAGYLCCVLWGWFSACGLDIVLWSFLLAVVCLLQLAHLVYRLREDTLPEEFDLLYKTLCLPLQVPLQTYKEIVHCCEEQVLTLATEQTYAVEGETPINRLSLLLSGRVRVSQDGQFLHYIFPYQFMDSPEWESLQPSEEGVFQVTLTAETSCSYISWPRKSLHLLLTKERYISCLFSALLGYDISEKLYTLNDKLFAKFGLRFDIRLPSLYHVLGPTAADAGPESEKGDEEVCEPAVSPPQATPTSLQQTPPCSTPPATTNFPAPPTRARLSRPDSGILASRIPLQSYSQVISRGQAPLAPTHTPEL

[7] = biological target: T7, POPDC2 (mouse, endogenous in heart) (mouse (endogenous in mouse heart)) (UniProt Q9ES82); test: proximity ligation
T7 sequence: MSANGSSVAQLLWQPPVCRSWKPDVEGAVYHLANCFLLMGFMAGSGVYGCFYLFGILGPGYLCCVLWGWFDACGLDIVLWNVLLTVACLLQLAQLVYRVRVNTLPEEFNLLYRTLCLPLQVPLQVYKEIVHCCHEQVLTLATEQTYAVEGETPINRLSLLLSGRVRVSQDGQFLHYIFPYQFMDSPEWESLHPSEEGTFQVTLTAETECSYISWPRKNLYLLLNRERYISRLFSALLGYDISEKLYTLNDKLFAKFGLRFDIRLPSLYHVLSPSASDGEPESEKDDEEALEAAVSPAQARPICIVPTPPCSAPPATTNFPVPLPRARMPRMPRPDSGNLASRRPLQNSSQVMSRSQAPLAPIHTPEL

[8] = biological target: T7, POPDC2 (mouse, endogenous in heart) (mouse (endogenous in mouse heart)); test: co-IP

binding [1]: binds
binding [2]: no binding
binding [3]: binds
B1: POPDC2-FLAG (protein, UniProt Q9HBU9 1-364)
chain: MSANSSRVGQLLLQGSACIRWKQDVEGAVYHLANCLLLLGFMGGSGVYGCFYLFGFLSAGYLCCVLWGWFSACGLDIVLWSFLLAVVCLLQLAHLVYRLREDTLPEEFDLLYKTLCLPLQVPLQTYKEIVHCCEEQVLTLATEQTYAVEGETPINRLSLLLSGRVRVSQDGQFLHYIFPYQFMDSPEWESLQPSEEGVFQVTLTAETSCSYISWPRKSLHLLLTKERYISCLFSALLGYDISEKLYTLNDKLFAKFGLRFDIRLPSLYHVLGPTAADAGPESEKGDEEVCEPAVSPPQATPTSLQQTPPCSTPPATTNFPAPPTRARLSRPDSGILASRIPLQSYSQVISRGQAPLAPTHTPEL

binding [4]: binds
B2: POPDC2 with C-terminal NanoLuc or HaloTag (NanoBRET constructs) (protein, UniProt Q9HBU9 1-364)
chain: MSANSSRVGQLLLQGSACIRWKQDVEGAVYHLANCLLLLGFMGGSGVYGCFYLFGFLSAGYLCCVLWGWFSACGLDIVLWSFLLAVVCLLQLAHLVYRLREDTLPEEFDLLYKTLCLPLQVPLQTYKEIVHCCEEQVLTLATEQTYAVEGETPINRLSLLLSGRVRVSQDGQFLHYIFPYQFMDSPEWESLQPSEEGVFQVTLTAETSCSYISWPRKSLHLLLTKERYISCLFSALLGYDISEKLYTLNDKLFAKFGLRFDIRLPSLYHVLGPTAADAGPESEKGDEEVCEPAVSPPQATPTSLQQTPPCSTPPATTNFPAPPTRARLSRPDSGILASRIPLQSYSQVISRGQAPLAPTHTPEL

binding [1]: binds
binding [5]: binds
B3: POPDC3-FLAG (protein, UniProt Q9HBV1 1-291)
chain: MERNSSLWKNLIDEHPVCTTWKQEAEGAIYHLASILFVVGFMGGSGFFGLLYVFSLLGLGFLCSAVWAWVDVCAADIFSWNFVLFVICFMQFVHIAYQVRSITFAREFQVLYSSLFQPLGISLPVFRTIALSSEVVTLEKEHCYAMQGKTSIDKLSLLVSGRIRVTVDGEFLHYIFPLQFLDSPEWDSLRPTEEGIFQVTLTAETDCRYVSWRRKKLYLLFAQHRYISRLFSVLIGSDIADKLYALNDRVYIGKRYHYDIRLPNFYQMSTPEIRRSPLTQHFQNSRRYCDK

binding [3]: binds
B4: POPDC2 W188X-FLAG (domain or fragment, UniProt Q9HBU9 1-187)
chain: MSANSSRVGQLLLQGSACIRWKQDVEGAVYHLANCLLLLGFMGGSGVYGCFYLFGFLSAGYLCCVLWGWFSACGLDIVLWSFLLAVVCLLQLAHLVYRLREDTLPEEFDLLYKTLCLPLQVPLQTYKEIVHCCEEQVLTLATEQTYAVEGETPINRLSLLLSGRVRVSQDGQFLHYIFPYQFMDSPE

binding [4]: binds
B5: POPDC1 with C-terminal NanoLuc or HaloTag (NanoBRET constructs) (natural protein, human, UniProt Q8NE79 1-360, looked up)
chain: MNYTESSPLRESTAIGFTPELESIIPVPSNKTTCENWREIHHLVFHVANICFAVGLVIPTTLHLHMIFLRGMLTLGCTLYIVWATLYRCALDIMIWNSVFLGVNILHLSYLLYKKRPVKIEKELSGMYRRLFEPLRVPPDLFRRLTGQFCMIQTLKKGQTYAAEDKTSVDDRLSILLKGKMKVSYRGHFLHNIYPCAFIDSPEFRSTQMHKGEKFQVTIIADDNCRFLCWSRERLTYFLESEPFLYEIFRYLIGKDITNKLYSLNDPTLNDKKAKKLEHQLSLCTQISMLEMRNSIASSSDSDDGLHQFLRGTSSMSSLHVSSPHQRASAKMKPIEEGAEDDDDVFEPASPNTLKVHQLP

binding [6]: binds
B6: POPDC1-VC155 (natural protein, human, UniProt Q8NE79 1-360, looked up)
chain: MNYTESSPLRESTAIGFTPELESIIPVPSNKTTCENWREIHHLVFHVANICFAVGLVIPTTLHLHMIFLRGMLTLGCTLYIVWATLYRCALDIMIWNSVFLGVNILHLSYLLYKKRPVKIEKELSGMYRRLFEPLRVPPDLFRRLTGQFCMIQTLKKGQTYAAEDKTSVDDRLSILLKGKMKVSYRGHFLHNIYPCAFIDSPEFRSTQMHKGEKFQVTIIADDNCRFLCWSRERLTYFLESEPFLYEIFRYLIGKDITNKLYSLNDPTLNDKKAKKLEHQLSLCTQISMLEMRNSIASSSDSDDGLHQFLRGTSSMSSLHVSSPHQRASAKMKPIEEGAEDDDDVFEPASPNTLKVHQLP

binding [6]: binds
B7: POPDC1 p.V183F-VC155 (protein, UniProt Q8NE79 1-360)
chain: MNYTESSPLRESTAIGFTPELESIIPVPSNKTTCENWREIHHLVFHVANICFAVGLVIPTTLHLHMIFLRGMLTLGCTLYIVWATLYRCALDIMIWNSVFLGVNILHLSYLLYKKRPVKIEKELSGMYRRLFEPLRVPPDLFRRLTGQFCMIQTLKKGQTYAAEDKTSVDDRLSILLKGKMKFSYRGHFLHNIYPCAFIDSPEFRSTQMHKGEKFQVTIIADDNCRFLCWSRERLTYFLESEPFLYEIFRYLIGKDITNKLYSLNDPTLNDKKAKKLEHQLSLCTQISMLEMRNSIASSSDSDDGLHQFLRGTSSMSSLHVSSPHQRASAKMKPIEEGAEDDDDVFEPASPNTLKVHQLP

binding [7]: binds
binding [8]: binds
B8: POPDC1 (mouse, endogenous in heart) (protein, UniProt Q9ES83 1-358)
chain: MNSTESIPLAQSTVAGFTSELESLTPVPSNETTCENWREIHHLVFHVANVCFAVGLLIPTTLHLHMILLRVMLSLGCTLYVVWATLYRCALDVMIWNSVFLGINILHLSYLLYKKRPVKIEKELGGVYHRLFEPLRVPPDLFRRLTGQFCMIQTLKRGQVYATEDKTSVDDRLSILLKGRMKVSYRGHFLHNIYPCAFIDSPEFRSTQMHKGEKFQVTIVADDNCRFLCWSRERLTYFLESEPFLYEIFRYLIGKDITNKLYSLNDPTLNDKKVKKLEPQMSLCTQISMLEMRNSITSSSDGEDGLHHFLRGSSSTASLPMSSPQQRASAKMKPIEEGVEDDDEVFVSPDALKVHQLP
